{"source": "patent US20040247633A1", "about": "“Novel dermatological composition” (EBERSYTES, LLC, priority 2003, published 2004)", "test_system": "hair growth", "assay": "C3H mouse model of hair growth", "type": "in vivo, C3H mice", "note": "At least one compound was matched to its structure with a doubt left.", "data": [{"molecule": "Nc1cc(N2CCCCC2)nc(N)[n+]1[O-]", "note": "[Minoxidil]", "values": [{"measurement": "hair follicles in the anagen phase, histological analysis of Fontana-Mason stained skin sections", "result": "not in the control or in the Minoxidil treated mice"}]}]}
